{"source": "PubChem BioAssay AID540256", "about": "(National Center for Advancing Translational Sciences (NCATS), 2011)", "note": "Among all 300,000 compounds or so, about 3,700 (1.2%) were called active. Inconclusive results, whose numbers are uncertain, are shown with a selection of clear calls. The call rests on the fitted dose curve; tested in HEK293 cells. A potency beside an inconclusive call is a rough fit, not a confirmed value. Potency means the concentration at half of the fitted maximal effect."}
{"experiment": "qHTS for Inhibitors of binding or entry into cells for Lassa Virus; further: nearly all actives have a fitted effect of over 50% in size", "conditions": "Lassa virus pseudotype entry inhibition, cell reporter; series mostly up to 37.9 µM"}
{"smiles": "CN1CCCC(OC(=O)c2ccc3c(c2)OCCO3)C1", "note": "(stereo not drawn)", "Potency": "inactive"}
{"smiles": "COc1cc(/C=C2\\SC(=S)N(CCC(=O)Nc3cccc(O)c3)C2=O)cc(OC)c1OC", "Potency": "inconclusive: 35.5 µM [inhibitor, single point]"}
{"smiles": "COc1ccc(C2c3ccc(O)cc3Oc3ncn(Cc4ccccc4)c(=N)c32)cc1OC", "note": "(stereo not drawn)", "Potency": "inconclusive: 20 µM [inhibitor, single point]"}
{"smiles": "Cc1ccc2nc(-c3ccc(NS(=O)(=O)c4ccccc4)cc3)sc2c1", "Potency": "inactive"}
{"smiles": "CC(NC(=O)Cn1ccsc1=N)C12CC3CC(CC(C3)C1)C2", "note": "(stereo not drawn)", "Potency": "inconclusive: 10 µM [inhibitor, single point]"}
{"smiles": "O=C(COc1ncnc2ccccc12)NC(=O)NCc1ccccc1", "Potency": "inconclusive: 23.1 µM [inhibitor, partial curve, poor fit]"}
{"smiles": "O=C(CN1CCCc2ccccc21)NCc1ccccc1Cl", "Potency": "inconclusive: 11.2 µM [activator, partial curve]"}
{"smiles": "COc1cc(/C=C2/CCC/C(=C\\c3cc(O)c(OC)c(Cl)c3)C2=O)cc(Cl)c1O", "Potency": "inconclusive: 29.1 µM [inhibitor, single point]"}
{"smiles": "CN(C)c1ccc(C(=S)N2CCCCC2)cc1Br", "Potency": "inconclusive: 11.2 µM [inhibitor, single point]"}
{"smiles": "O=c1ccc2c([nH]1)CCCCCCCCCC2", "Potency": "inconclusive: 0.112 µM [inhibitor, full curve, poor fit]"}
{"smiles": "Cc1[nH][nH]c(=O)c1C(c1ccc(-c2ccc(C(=O)O)cc2)o1)c1c(C)[nH][nH]c1=O", "Potency": "inactive"}
{"smiles": "c1cncc(-c2nc(-c3cccs3)cs2)c1", "Potency": "inconclusive: 35.5 µM [activator, single point]"}
{"smiles": "COC(=O)N/N=C/c1ccc([N+](=O)[O-])s1", "Potency": "inconclusive: 35.5 µM [inhibitor, single point]"}
{"smiles": "CCn1c(NC(=O)/C=C/c2ccc(F)cc2)nc2ccccc21", "Potency": "inconclusive: 35.5 µM [inhibitor, single point]"}
{"smiles": "COc1ccc(-c2nc(CSc3nnc(C)n4c3cc3occc34)c(C)o2)cc1OC", "Potency": "inconclusive: 5.62 µM [inhibitor, single point]"}
{"smiles": "COc1cc(OC)c(NC(=O)N2CC3CCCN3c3ccccc32)cc1Cl", "note": "(stereo not drawn)", "Potency": "inconclusive: 31.6 µM [inhibitor, single point]"}
{"smiles": "CCS(=O)(=O)N1Cc2ccccc2CC1C(=O)N(C)Cc1ccc(OC)cc1OC", "note": "(stereo not drawn)", "Potency": "inconclusive: 1.12 µM [inhibitor, full curve]"}
{"smiles": "Cc1nnc2c3ccccc3c(-c3ccccc3)nn12", "Potency": "inconclusive: 18.3 µM [inhibitor, partial curve, poor fit]"}
{"smiles": "Cc1ccc(Cc2cnc(NC(=O)c3cccs3)s2)cc1", "Potency": "inconclusive: 14.1 µM [inhibitor, single point]"}
{"smiles": "CCCCN(C(=O)c1ccc(S(=O)(=O)N(C)C)cc1)c1nc2ccccc2s1", "Potency": "inactive"}
{"smiles": "CC(C)c1ccc(NC(=O)C(C)N(c2ccccc2)S(C)(=O)=O)cc1", "note": "(stereo not drawn)", "Potency": "inactive"}
{"smiles": "CCN(c1ccccc1)S(=O)(=O)c1ccc(NC(=O)C(C)(C)C)cc1", "Potency": "active: 14.6 µM"}
{"smiles": "COC(=O)[C@@]1(Cc2ccc(F)cc2)[C@H]2c3cc(C(=O)N4CCCC4)n(Cc4ccc(C(F)(F)F)nc4)c3C[C@H]2CN1C(=O)c1ccccc1", "Potency": "inconclusive: 29.1 µM [inhibitor, single point]"}
{"smiles": "CC(=O)c1ccc2c(c1)CC(C)C(=O)N2C", "note": "(stereo not drawn)", "Potency": "inactive"}
{"smiles": "Fc1cnc(N/N=C/c2ccc(-c3ccc(Br)cc3)o2)nc1N1CCOCC1", "Potency": "inactive"}
{"smiles": "Cn1c(C(=O)N2CCOCC2)cc2c(=O)n3ccccc3nc21", "Potency": "inactive"}
{"smiles": "CN(C)c1ccc(/C=C/c2noc(-c3ccccc3O)n2)cc1", "Potency": "inconclusive: 6.31 µM [activator, single point]"}
{"smiles": "COc1ccc(OC)c(-c2csc(NC(=O)CN3C(=O)NC4(CCCC4)C3=O)n2)c1", "Potency": "inconclusive: 10 µM [inhibitor, partial curve, poor fit]"}
{"smiles": "Cc1cccc(OCC(=O)N(Cc2ccc(C(C)(C)C)cc2)Cc2ccco2)c1", "Potency": "inconclusive: 0.891 µM [inhibitor, full curve, poor fit]"}
{"smiles": "CCCSc1nsc(NC(=O)C(c2ccccc2)c2ccccc2)n1", "Potency": "inconclusive: 20 µM [inhibitor, partial curve, poor fit]"}
{"smiles": "Cc1ccc(-n2nnnc2SCC(=O)Nc2sc(C)c(C)c2C#N)cc1C", "Potency": "inconclusive: 29.1 µM [inhibitor, single point]"}
{"smiles": "COc1ccc(-c2c3c(cc(C)[n+]2[O-])oc2ccc(OC)cc23)cc1", "Potency": "inconclusive: 35.5 µM [inhibitor, partial curve, poor fit]"}
{"smiles": "Nc1ccc(O)cc1C(=O)OCC(=O)C12CC3CC(CC(C3)C1)C2", "Potency": "inactive"}
{"smiles": "O=c1[nH]c(=O)n(C2CCCCC2)c(O)c1C1=Nc2ccccc2SC(c2ccccc2)C1", "note": "(stereo not drawn)", "Potency": "inconclusive: 22.4 µM [inhibitor, single point]"}
{"smiles": "CC(=O)c1cccc(S(=O)(=O)N2CCN(c3nc4cc(C)cc(C)c4cc3C#N)CC2)c1", "Potency": "inactive"}
{"smiles": "COc1cc(NC(=O)c2ccccn2)cc(OC)c1OC", "Potency": "inconclusive: 0.461 µM [inhibitor, partial curve, poor fit]"}
{"smiles": "CC(C)OP(=O)(Nc1cccc2ccccc12)OC(C)C", "Potency": "inactive"}
{"smiles": "Cc1ccc(CNc2ncnc3c2nnn3C)cc1", "Potency": "inactive"}
{"smiles": "O=c1[nH]c2ccccc2nc1-c1cccs1", "Potency": "inactive"}
{"smiles": "COc1ccc(NC(=O)CC2C(=O)N(c3cccc(C)c3)C(=O)N2Cc2cccnc2)cc1", "note": "(stereo not drawn)", "Potency": "inactive"}
{"smiles": "O=C(CSc1nc(-c2ccc(F)cc2)cs1)N1CCOCC1", "Potency": "inconclusive: 1.3 µM [activator, full curve, poor fit]"}
{"smiles": "Cc1ccc(C(C(=O)NC2CCCC2)N(Cc2ccc3c(c2)OCO3)C(=O)Cc2cccs2)cc1", "note": "(stereo not drawn)", "Potency": "inconclusive: 20 µM [inhibitor, partial curve, poor fit]"}
{"smiles": "C=CCNc1sc(C(=O)c2ccc(C)cc2)c(N)c1C#N", "Potency": "inactive"}
{"smiles": "Cc1nn(C(=O)c2ccc(Cl)cc2)c(C)c1S(=O)(=O)N1CCOCC1", "Potency": "inactive"}
{"smiles": "COc1ccc(CNC(=O)c2c(-c3c(F)cccc3Cl)noc2C)cc1", "Potency": "inconclusive: 0.398 µM [inhibitor, partial curve, poor fit]"}
{"smiles": "Cc1ccc(NC(=O)c2noc3c2CCCCC3)cc1C", "Potency": "inconclusive: 8.2 µM [inhibitor, partial curve, poor fit]"}
{"smiles": "Cc1cc(N2CCN(CC(O)C(F)(F)F)CC2)c2ccccc2n1", "note": "(stereo not drawn)", "Potency": "inactive"}
{"smiles": "CCOc1cc(/C=N/Nc2nncc(-c3ccccc3)n2)ccc1O", "Potency": "inconclusive: 10 µM [inhibitor, partial curve, poor fit]"}
{"smiles": "COCc1cc(C)nc(SCC(=O)Nc2cccc3cccnc23)c1C#N", "Potency": "inactive"}
{"smiles": "Cc1ccc(C)c(CN2C(=O)c3ccccc3S(=O)(=O)c3ccc(C(=O)NCCCN4CCCC(C)C4)cc32)c1", "note": "(stereo not drawn)", "Potency": "inconclusive: 17.8 µM [inhibitor, single point]"}
{"smiles": "Cc1cc(C(=O)CSc2nncs2)c(C)n1Cc1ccco1", "Potency": "active: 4.47 µM"}
{"smiles": "CC1CCN(C(=O)Cn2ncc3c([nH]c4ccccc43)c2=O)CC1", "Potency": "inconclusive: 35.5 µM [inhibitor, partial curve, poor fit]"}
{"smiles": "O=C(Cn1ncc2c3ccccc3n(Cc3ccc(F)cc3)c2c1=O)NCCC1=CCCCC1", "Potency": "inconclusive: 12.6 µM [activator, single point]"}
{"smiles": "COC(=O)c1cc2sccc2n1Cc1nc(-c2ccc(OC)cc2)oc1C", "Potency": "inconclusive: 9.2 µM [inhibitor, partial curve, poor fit]"}
{"smiles": "Cc1ccc(C)c(N2CCN(S(=O)(=O)c3ccc4c(c3)NC(=O)CS4)CC2)c1", "Potency": "inconclusive: 11.2 µM [inhibitor, partial curve, poor fit]"}
{"smiles": "C/C(=N\\NC(=O)c1c(C)nc2ccccn12)c1ccccc1F", "Potency": "inactive"}
{"smiles": "CCN1C(=O)/C(=C/c2nc3ccccc3c(=O)[nH]2)c2ccccc21", "Potency": "inactive"}
{"smiles": "CCCOc1ccc(CCC(=O)N/N=C/c2ccco2)cc1", "Potency": "inconclusive: 10 µM [inhibitor, partial curve, poor fit]"}
{"smiles": "Nc1c(C(=O)Nc2ccc(OC(F)(F)F)cc2)sc2nc(-c3ccncc3)ccc12", "Potency": "inconclusive: 28.2 µM [inhibitor, single point]"}
{"smiles": "CCOc1ccccc1-c1noc(CSc2nnc(-c3ccccc3)n2-c2ccc(F)cc2)n1", "Potency": "inconclusive: 8.91 µM [inhibitor, partial curve, poor fit]"}
{"smiles": "Cc1ccc(S(=O)(=O)NC(C(=O)N2CCOCCOCCOCCOCC2)C(C)C)cc1", "note": "(stereo not drawn)", "Potency": "inactive"}
{"smiles": "CC(Oc1ccc(Cl)cc1)C(=O)Nc1ccccc1N1CCOCC1", "note": "(stereo not drawn)", "Potency": "inconclusive: 35.5 µM [inhibitor, partial curve, poor fit]"}
{"smiles": "COC(=O)c1c(NC(=O)c2nc(SCc3ccc(F)cc3)ncc2Cl)sc2c1CCCC2", "Potency": "inactive"}
{"smiles": "Cc1ccc(-c2csc3ncnc(N4CCN(C(=O)c5ccco5)CC4)c23)cc1", "Potency": "inconclusive: 35.5 µM [inhibitor, single point]"}
{"smiles": "CCCOc1ccc(CNC(=S)NCc2ccc(OC(C)C)cc2)cc1", "Potency": "inconclusive: 2.51 µM [activator, partial curve, poor fit]"}
{"smiles": "O=c1[nH]c(=O)n(-c2ccc(F)cc2)c2c1C(C(F)(F)F)(C(F)(F)F)N=C(c1ccc(F)cc1)N2", "Potency": "inconclusive: 35.5 µM [inhibitor, single point]"}
{"smiles": "COc1ccc(C(=O)CSc2ccc(-c3ccc(C)cc3)nn2)cc1", "Potency": "inconclusive: 14.1 µM [inhibitor, single point]"}
{"smiles": "O=S(=O)(NCC(c1ccco1)N1CCN(c2ccccc2F)CC1)c1ccc(F)cc1", "note": "(stereo not drawn)", "Potency": "inconclusive: 5.62 µM [inhibitor, partial curve]"}
